This is one part of the list. These are further read-outs of the screen, such as a control signal, another cell line or another target. No call is given for them. Most of these compounds were active or inconclusive in the main read-out, so they are no random draw. Potencies come from curve fits of mixed quality, noted in brackets.
Test: qHTS Assay for Lipid Storage Modulators in Drosophila S3 Cells;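 on cell number change: cells counted by Cell Tracker Red CMTPX staining in the red channel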
Conditions: BODIPY lipid droplet fluorescence, 18-24 h; for cell number change: measured here: cell count max response, cells fed with added oleic acid
Method in brief: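 Drosophila S3 cells loaded with oleic acid (400 uM, as added) and compounds at several concentrations; lipid droplets imaged by 488-nm laser-scanning cytometry, 500–530 nm intensity and object ratio to cell channel. Percent activity normalized to 20 uM Triacsin C.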

[1] = measured here: lipid fluorescence (Fed channel) AC50, cells fed with added oleic acid
[2] = measured here: cell number channel AC50, cells fed with added oleic acid

| Compound | cell number change | AC50 [1] | AC50 [2] |
| --- | --- | --- | --- |
| O=C(NCCc1csc(-c2ccc(C(F)(F)F)cc2)n1)c1cccs1 | 16.8% | 4.61 µM [rising, full curve, poor fit] |  |
| CCOCC(=O)Nc1cc(C(=O)NCCC(C)C)ccc1Cl | 6.89% |  |  |
| O=C(NC(=S)Nc1nc2c(s1)CSc1ccccc1-2)c1ccccc1 | -31.4% | 2.06 µM [rising, partial curve] | 1.64 µM [rising, partial curve] |
| O=C(COC(=O)/C=C/c1cccc(Cl)c1Cl)Nc1ccc2[nH]c(=O)[nH]c2c1 | -32.3% |  | 7.31 µM [falling, partial curve] |
| COc1ccc(-c2noc3c2-c2nc(-c4ccccc4F)sc2CC3)cc1 | 24% |  |  |
| Cc1ccc(C)c(-n2c3nc(=O)n(C)c(=O)c-3cc3ccccc32)c1 | 18.8% | 18.4 µM [rising, single point] |  |
| CCN(CC(=O)Nc1ccc(NC(C)=O)cc1)C(=O)c1oc2ccccc2c1C | 0.879% | 0.58 µM [falling, single point] |  |
| CCCCOC(=O)CN1C(=O)c2ccc(C(=O)OCCCC)cc2C1=O | -95.4% | 16.4 µM [falling, partial curve] | 20.6 µM [falling, partial curve, poor fit] |
| Cc1cccc(C)c1NC(=O)C(NC(=O)c1ccccn1)c1ccc([N+](=O)[O-])cc1 (stereo not drawn) | 73.2% | 2.06 µM [rising, full curve] | 1.3 µM [rising, full curve] |
| COc1cc(OC)cc(C(=O)NNC(=O)CCOc2ccccc2OC)c1 | -15% | 0.13 µM [falling, full curve, poor fit] | 0.146 µM [falling, full curve, poor fit] |
| Cc1ccc(NC(=O)Nc2c(C)n(C)n(-c3ccccc3)c2=O)cc1C | 33.8% | 1.46 µM [rising, full curve] | 5.8 µM [rising, full curve] |
| CC1(C)Cc2nc3sc4c(=O)n(CC(=O)NCc5ccccc5)cnc4c3cc2CO1 | -20.7% | 0.146 µM [falling, full curve] |  |
| COc1cccc(CNS(=O)(=O)c2ccc(-n3cnnn3)c(C)c2)c1 | 6.41% | 0.116 µM [falling, single point] |  |
| Cc1ccc(NS(=O)(=O)c2c(C)[nH]c(=O)[nH]c2=O)cc1F | 27% | 16.4 µM [rising, partial curve] |  |
| S=c1[nH]nc(-c2ccco2)n1/N=C/c1cccs1 | -22.4% | 18.4 µM [falling, single point] |  |
| CC(=O)Nc1ccc(C(=O)OCc2ccc(Br)cc2)cc1 | -32.5% |  | 29.1 µM [falling, single point] |
| CCOc1ccc(C(C(=O)NCC2CCCO2)N(C(=O)c2snc(C(N)=O)c2N)c2ccccc2F)cc1 (stereo not drawn) | -8.97% |  |  |
| CCOC(=O)c1ccccc1NC(=O)CN(c1ccccc1OC)S(C)(=O)=O | 6.26% | 29.1 µM [rising, single point] |  |
| C=CCOC(=O)c1ccc(-n2cnc(C)n2)nc1 | -40.3% |  | 29.1 µM [falling, single point] |
| O=C1c2ccccc2C(Nc2ccccc2)N1c1ccc(Cl)cn1 (stereo not drawn) |  | 29.1 µM [rising, partial curve, poor fit] | 2.31 µM [rising, partial curve] |

Sorted by molecular weight (low to high): twelve of the compounds above

| Compound | cell number change | AC50 [1] | AC50 [2] |
| --- | --- | --- | --- |
| S=c1[nH]nc(-c2ccco2)n1/N=C/c1cccs1 | -22.4% | 18.4 µM [falling, single point] |  |
| Cc1ccc(NS(=O)(=O)c2c(C)[nH]c(=O)[nH]c2=O)cc1F | 27% | 16.4 µM [rising, partial curve] |  |
| CCOCC(=O)Nc1cc(C(=O)NCCC(C)C)ccc1Cl | 6.89% |  |  |
| Cc1ccc(C)c(-n2c3nc(=O)n(C)c(=O)c-3cc3ccccc32)c1 | 18.8% | 18.4 µM [rising, single point] |  |
| COc1cccc(CNS(=O)(=O)c2ccc(-n3cnnn3)c(C)c2)c1 | 6.41% | 0.116 µM [falling, single point] |  |
| CCCCOC(=O)CN1C(=O)c2ccc(C(=O)OCCCC)cc2C1=O | -95.4% | 16.4 µM [falling, partial curve] | 20.6 µM [falling, partial curve, poor fit] |
| COc1cc(OC)cc(C(=O)NNC(=O)CCOc2ccccc2OC)c1 | -15% | 0.13 µM [falling, full curve, poor fit] | 0.146 µM [falling, full curve, poor fit] |
| COc1ccc(-c2noc3c2-c2nc(-c4ccccc4F)sc2CC3)cc1 | 24% |  |  |
| O=C(NCCc1csc(-c2ccc(C(F)(F)F)cc2)n1)c1cccs1 | 16.8% | 4.61 µM [rising, full curve, poor fit] |  |
| CCN(CC(=O)Nc1ccc(NC(C)=O)cc1)C(=O)c1oc2ccccc2c1C | 0.879% | 0.58 µM [falling, single point] |  |
| Cc1cccc(C)c1NC(=O)C(NC(=O)c1ccccn1)c1ccc([N+](=O)[O-])cc1 (stereo not drawn) | 73.2% | 2.06 µM [rising, full curve] | 1.3 µM [rising, full curve] |
| CCOc1ccc(C(C(=O)NCC2CCCO2)N(C(=O)c2snc(C(N)=O)c2N)c2ccccc2F)cc1 (stereo not drawn) | -8.97% |  |  |

Continued:

| Compound | cell number change | AC50 [1] | AC50 [2] |
| --- | --- | --- | --- |
| CC1CN(S(=O)(=O)c2ccc(C(=O)Nc3nnc(-c4ccco4)o3)cc2)CC(C)O1 (stereo not drawn) | 22.4% | 1.46 µM [rising, full curve] |  |
| O=C(CSC(=S)N1CCCC1)NCCc1ccccc1 | 6.92% | 6.51 µM [rising, single point] |  |
| COc1ccc(Oc2ncc(CN3CCN(c4ccccc4)CC3)s2)cc1 |  | 29.1 µM [falling, single point] | 6.51 µM [falling, single point] |
| Cc1ccccc1OCC(=O)OCC(=O)Nc1cc(S(C)(=O)=O)ccc1Cl | -19.2% |  |  |
| CCCCNC(=O)c1oc2ccc(S(=O)(=O)N3CCCC3)cc2c1C | -6.52% |  |  |
| CN(C)CCCN1C(=O)C(=O)/C(=C(/O)c2ccncc2)C1c1cccnc1 (stereo not drawn) | -3.39% | 3.26 µM [falling, single point] |  |
| CC(=O)Nc1ccc(NC(=O)COC(=O)Cc2c[nH]c3ccccc23)cc1 | -26% | 5.17 µM [falling, partial curve, poor fit] |  |
| Cc1cc(C(=O)CSc2nncn2C)c(C)n1-c1ccccc1 | 9.71% |  |  |
| CCN(CC)N=Nc1[nH]nc2nc(C)cc(C)c12 | 7.13% | 0.00461 µM [rising, full curve, poor fit] |  |
| Cc1[nH]c(C)c(S(=O)(=O)N(C)Cc2ccccc2)c1C(=O)N1CCCC1 | -7.91% | 29.1 µM [rising, single point] |  |
| O=C(c1ccc(Cl)c(Cl)c1)N1CCC(=O)N(C(COCc2ccc(Cl)cc2)Cc2ccccc2)CC1 (stereo not drawn) | -8.07% | 9.2 µM [rising, partial curve] |  |
| CC(=O)c1ccc(N2CCN(C(=O)Nc3ccc(C(C)C)cc3)CC2)cc1 | -40.8% | 1.64 µM [falling, partial curve] | 29.1 µM [falling, single point] |
| COC(=O)CNC(c1ccccc1)c1cc(Br)ccc1NS(=O)(=O)c1ccccc1 (stereo not drawn) | 11.3% | 2.06 µM [rising, partial curve] |  |
| Cc1ccc(C(=O)N(C)Cc2ccc(N3CCOCC3)cc2)cc1S(=O)(=O)NCc1ccccc1 | -11.7% | 0.00461 µM [falling, full curve, poor fit] |  |
| COc1ccccc1-c1nnc(SCC(=O)NNC(=O)c2ccccc2F)n1C | 1.55% | 7.31 µM [rising, partial curve, poor fit] |  |
| Nc1nnc(SCC(=O)Nc2ccccc2N2CCOCC2)s1 | -71.7% | 16.4 µM [falling, partial curve, poor fit] | 9.2 µM [falling, partial curve] |
| COC(=O)c1ccc(C(=O)OC)c(NC(=O)CS(=O)(=O)Cc2ccccc2)c1 | -13.4% | 23.1 µM [rising, partial curve, poor fit] |  |
| O=C(CSc1cc(Cl)ccc1Cl)NC1CC1 | -3.74% | 16.4 µM [rising, partial curve] |  |
| COc1ccccc1/C=C/CN1CCSCC1 | 14.5% | 3.66 µM [rising, partial curve] |  |
| Cn1c2ccccc2c2cnn(CC(=O)NCCCN3CCN(c4ccccc4F)CC3)c(=O)c21 | 5.19% |  |  |

| Compound | cell number change | AC50 [1] | AC50 [2] |
| --- | --- | --- | --- |
| COc1cccc(/C=N/Nc2nc(-c3cccnc3)nc3ccccc23)c1 | 5.98% | 0.461 µM [rising, single point] |  |
| Cc1ccccc1NC(=O)c1c(-c2ccccc2)noc1C | -43.7% |  | 14.6 µM [falling, partial curve, poor fit] |
| CNc1ccc(Br)cc(C(=O)/C=C/c2cccc(OC)c2OC)c1=O | -20.8% | 20.6 µM [falling, partial curve] |  |
| CCN(CC)c1ccc(/C=N/NC(=S)NCc2ccco2)cc1 |  | 3.66 µM [rising, single point] |  |
| COc1ccc(NC2CCCN(C(=O)CCc3ccccc3F)C2)cc1 (stereo not drawn) | -6.12% | 0.731 µM [rising, full curve] |  |
| Cc1cc(=O)oc2c(C)c(OCC(=O)N3CC[C@@]4(O)CCCC[C@H]4C3)ccc12 |  | 20.6 µM [falling, partial curve] |  |
| Cc1nn(C)cc1C(C(=O)NC1CCCCC1)N(Cc1ccc(F)cc1)C(=O)c1cnccn1 (stereo not drawn) | 33.1% |  | 29.1 µM [rising, single point] |
| CC(=O)Nc1ccccc1N(CC(O)Cn1c2ccccc2c2ccccc21)S(=O)(=O)c1ccc(C)cc1 (stereo not drawn) | 0.628% | 6.51 µM [falling, single point] |  |
| O=C(Nc1ccccc1)N1CCn2c1nc1ccccc12 | 9.92% | 0.0058 µM [rising, full curve, poor fit] |  |
| Cc1ccc(S(=O)(=O)N2[C@@H](c3ccc(Cl)cc3)C(C(=O)O)=CC[C@H]2c2ccc(Cl)cc2)cc1 | -45.6% |  | 25.9 µM [falling, partial curve, poor fit] |
| COc1ccc(/C=N/N2C(=O)CN(C(=O)c3ccccc3)C2c2ccc(OC)cc2)cc1 (stereo not drawn) | 22.6% |  |  |
| CCc1nnc(NS(=O)(=O)c2ccc(NC(=O)Nc3ccc(OC)cc3)cc2)s1 | 2.33% | 3.26 µM [rising, single point] |  |
| C=CCN(c1ccccc1)S(=O)(=O)c1cccc(C(=O)NCc2ccncc2)c1 |  | 2.91 µM [rising, partial curve, poor fit] | 1.84 µM [rising, partial curve] |
| CC(C)CCn1c(=O)c2ccccc2n2c(CN3CCOCC3)nnc12 | -1.81% | 0.92 µM [rising, full curve, poor fit] | 0.411 µM [rising, full curve, poor fit] |
| O=C(O)c1ccc(Cl)cc1Nc1nc2cc(Cl)ccc2o1 | 21.8% | 0.082 µM [rising, partial curve, poor fit] |  |
| O=C(NCC1CCCO1)c1ccc2c(=O)n(Cc3ccco3)c(SCC(=O)N3CCCC3)nc2c1 (stereo not drawn) | -21.9% |  |  |
| COc1ccc(C(=O)N2CCN(c3cccc(C)c3C)CC2)cc1S(=O)(=O)NC1CC1 |  |  | 2.31 µM [rising, single point] |
| CCCCOc1ccc(CSCCN)cc1Cl | 2.46% | 6.51 µM [rising, single point] |  |
| O=C(Nc1cccc(NC(=O)c2ccccc2)n1)c1ccccc1 | 10.9% |  |  |

— PubChem BioAssay AID2685 (National Center for Advancing Translational Sciences (NCATS), 2010)
